Reference: article PMC13049930
These are yes or no findings as the source states them, for the method shown. Binding seen in cells or lysates may run through a third protein. Some entries that bind do so weakly or less than the wild type.

Chains of the proteins cited; added tags and fusions are not shown.
UniProt Q99J95: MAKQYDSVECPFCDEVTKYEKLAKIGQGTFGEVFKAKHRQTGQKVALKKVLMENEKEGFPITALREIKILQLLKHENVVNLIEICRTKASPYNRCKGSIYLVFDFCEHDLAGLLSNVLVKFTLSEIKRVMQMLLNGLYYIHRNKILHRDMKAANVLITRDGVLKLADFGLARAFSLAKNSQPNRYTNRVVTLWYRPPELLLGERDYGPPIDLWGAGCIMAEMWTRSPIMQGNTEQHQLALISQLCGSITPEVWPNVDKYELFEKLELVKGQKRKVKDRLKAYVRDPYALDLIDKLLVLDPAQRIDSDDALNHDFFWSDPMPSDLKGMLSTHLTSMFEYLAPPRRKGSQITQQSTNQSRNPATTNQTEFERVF
UniProt Q9QWV9: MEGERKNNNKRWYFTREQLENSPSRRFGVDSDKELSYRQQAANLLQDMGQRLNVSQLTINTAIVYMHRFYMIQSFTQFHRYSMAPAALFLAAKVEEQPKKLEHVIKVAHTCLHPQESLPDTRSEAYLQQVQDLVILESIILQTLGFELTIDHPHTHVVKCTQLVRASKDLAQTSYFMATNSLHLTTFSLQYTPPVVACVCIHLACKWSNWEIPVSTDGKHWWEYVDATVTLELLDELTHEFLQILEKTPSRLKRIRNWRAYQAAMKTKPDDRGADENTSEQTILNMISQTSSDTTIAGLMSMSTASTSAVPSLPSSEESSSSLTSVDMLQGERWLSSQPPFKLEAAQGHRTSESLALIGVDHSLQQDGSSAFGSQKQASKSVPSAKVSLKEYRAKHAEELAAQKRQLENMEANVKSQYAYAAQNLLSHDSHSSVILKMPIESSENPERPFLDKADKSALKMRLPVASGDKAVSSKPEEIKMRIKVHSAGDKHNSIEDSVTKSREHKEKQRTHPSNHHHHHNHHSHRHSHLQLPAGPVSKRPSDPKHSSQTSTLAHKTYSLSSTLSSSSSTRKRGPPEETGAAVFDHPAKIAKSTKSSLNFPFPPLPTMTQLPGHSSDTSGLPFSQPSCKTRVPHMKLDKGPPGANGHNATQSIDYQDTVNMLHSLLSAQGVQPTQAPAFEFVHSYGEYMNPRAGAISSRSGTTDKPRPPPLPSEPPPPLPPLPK

Biological target: cyclin-dependent kinase 9 (CDK9), isoform not told apart (mouse (endogenous in primary cortical neurons, hippocampus and N2a cells)) (UniProt Q99J95)
Assay: co-IP; primary cortical neuron lysate (mouse); HEXIM1, CDK9 or IgG antibody on protein A and G Dynabeads, 1 h at 4 °C; lysis buffer 150 mM NaCl, 50 mM Tris-HCl, 1% NP-40, 5 mM EDTA; Western blot

- binding: binds
Substance: Cyclin T1 (CCNT1) (from UniProt Q9QWV9 1-724)
